Measurements: doi:10.1101/220798
Results are given in words; binding and its absence hold for the method and conditions named.

Target: T1, wild type Sse1 (yeast Hsp110) (yeast), P32589
T1 chain: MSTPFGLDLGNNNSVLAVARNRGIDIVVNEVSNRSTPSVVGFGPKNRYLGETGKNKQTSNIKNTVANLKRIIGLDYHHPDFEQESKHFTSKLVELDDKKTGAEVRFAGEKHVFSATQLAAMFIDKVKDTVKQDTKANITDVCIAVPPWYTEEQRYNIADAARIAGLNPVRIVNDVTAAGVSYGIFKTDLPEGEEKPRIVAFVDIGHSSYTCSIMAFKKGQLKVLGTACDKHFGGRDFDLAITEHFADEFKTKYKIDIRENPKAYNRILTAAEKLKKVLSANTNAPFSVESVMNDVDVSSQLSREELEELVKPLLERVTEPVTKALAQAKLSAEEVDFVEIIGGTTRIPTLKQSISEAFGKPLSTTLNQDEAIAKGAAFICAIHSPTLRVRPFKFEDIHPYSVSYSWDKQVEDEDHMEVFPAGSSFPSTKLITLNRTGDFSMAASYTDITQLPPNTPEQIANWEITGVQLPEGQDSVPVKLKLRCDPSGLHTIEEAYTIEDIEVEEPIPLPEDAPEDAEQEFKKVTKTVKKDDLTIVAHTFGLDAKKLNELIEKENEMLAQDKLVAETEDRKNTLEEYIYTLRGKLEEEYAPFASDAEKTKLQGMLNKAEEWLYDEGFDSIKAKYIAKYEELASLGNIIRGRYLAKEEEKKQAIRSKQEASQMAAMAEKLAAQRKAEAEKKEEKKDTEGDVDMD
Experiment: SAXS
Details: remark: other sources report otherwise

binding: no binding
B1: wild type Sse1 (yeast Hsp110), P32589 1-693 (protein)
chain: T1 chain
